Compounds and concentrations:
tanespimycin, 0.01 µM: C=CCNC1=C2C[C@@H](C)C[C@H](OC)[C@H](O)[C@@H](C)/C=C(\C)[C@H](OC(N)=O)[C@@H](OC)/C=C\C=C(/C)C(=O)NC(=CC1=O)C2=O
A-769662, 10 µM: N#Cc1c(O)c2c(-c3ccc(-c4ccccc4O)cc3)csc2[nH]c1=O
lestaurtinib, 0.02 µM: C[C@]12O[C@H](C[C@]1(O)CO)n1c3ccccc3c3c4c(c5c6ccccc6n2c5c31)CNC4=O
embelin, 6 µM: CCCCCCCCCCCC1=C(O)C(=O)C=C(O)C1=O
lenalidomide, 5 µM: Nc1cccc2c1CN(C1CCC(=O)NC1=O)C2=O (stereo not shown)
KU-0063794, 0.1 µM: COc1ccc(-c2ccc3c(N4CCOCC4)nc(N4C[C@@H](C)O[C@@H](C)C4)nc3n2)cc1CO
dasatinib, 0.02 µM: Cc1nc(Nc2ncc(C(=O)Nc3c(C)cccc3Cl)s2)cc(N2CCN(CCO)CC2)n1
STA-4783, 0.03 µM: CN(NC(=O)CC(=O)NN(C)C(=S)c1ccccc1)C(=S)c1ccccc1

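The test systems are human melanoma cell lines, treated with a pair of drugs for 72 h and then stained and imaged. The read-out is the fraction of cleaved-PARP-positive nuclei, in % of that fraction in the DMSO control; 200 means twice the control level of this apoptosis marker. Every drug was used at one fixed concentration, the higher of two screened. No replicate spread is given; individual values may be noisy. The marker varies much from line to line, for technical or biological reasons.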
Only some of the drugs and lines screened are listed, without regard to their results.

Combination,A101D
KU-0063794 + tanespimycin,243
dasatinib + tanespimycin,223
lenalidomide + dasatinib,79.1
lestaurtinib + embelin,215
A-769662 + lenalidomide,157
A-769662 + embelin,113
A-769662 + STA-4783,218
STA-4783 + lestaurtinib,143
embelin + tanespimycin,203
dasatinib + STA-4783,414
lenalidomide + STA-4783,79.0
KU-0063794 + lenalidomide,140
STA-4783 + KU-0063794,147
embelin + STA-4783,124
tanespimycin + lenalidomide,108
A-769662 + tanespimycin,93.0
KU-0063794 + dasatinib,833
KU-0063794 + embelin,45.7
lestaurtinib + KU-0063794,139
lenalidomide + embelin,213
lenalidomide + lestaurtinib,92.4
dasatinib + lestaurtinib,50.5
embelin + dasatinib,92.8

Once more, the final 3:

{"combination": "lenalidomide + lestaurtinib", "A101D": 92.4}
{"combination": "dasatinib + lestaurtinib", "A101D": 50.5}
{"combination": "embelin + dasatinib", "A101D": 92.8}

From a melanoma drug combination screen (doi:10.1371/journal.pone.0140310); values rounded.